Source: PubChem BioAssay AID2685 (National Center for Advancing Translational Sciences (NCATS), 2010)
This is one part of the list. Shown are side measurements of this screen, not its main read-out; they come without a call. The list favours compounds with an active or inconclusive main result. Potencies come from curve fits of mixed quality, noted in brackets.

Test: qHTS Assay for Lipid Storage Modulators in Drosophila S3 Cells;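 on cell number change: cells counted by Cell Tracker Red CMTPX staining in the red channel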
Conditions: BODIPY lipid droplet fluorescence, 18-24 h; for cell number change: measured here: cell count max response, cells fed with added oleic acid
How it was run: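 Laser-scanning cytometry quantifies lipid droplet accumulation (500–530 nm total intensity; droplet/cell object ratio) in oleic acid-fed (400 uM added) Drosophila S3 cells treated with a concentration series. 20 uM Triacsin C defined 100% inhibition.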

[1] = measured here: cell number channel AC50, cells fed with added oleic acid
[2] = measured here: lipid fluorescence (Fed channel) AC50, cells fed with added oleic acid

## COc1ccccc1NC(=O)COn1nnc2ccc(S(=O)(=O)N3CCOCC3)cc21
  cell number change: -12.6%

## COc1ccc(C2N(c3cc(Cl)ccc3OC)C(=O)C3CCCN32)cc1 (centres undefined)
  cell number change: 43.5%
[1]
  AC50: 0.13 µM [rising, full curve, poor fit]
[2]
  AC50: 16.4 µM [rising, partial curve]

## COc1ccc(NC(=O)c2cc3ccccc3o2)cc1
  cell number change: -2.88%
[2]
  AC50: 0.00461 µM [rising, full curve, poor fit]

## COc1cccc(CNc2ccc(C)c(Cl)c2)c1
  cell number change: -11.3%

## CC(OCCN(C)C)C(=O)C12CC3CC(CC(C3)C1)C2 (centres undefined)
  cell number change: -42%
[1]
  AC50: 11.6 µM [falling, partial curve, poor fit]

## C=CCNC(=O)/C(C#N)=C/c1ccc(OS(=O)(=O)c2ccc(C)cc2)c(OC)c1
  cell number change: -31.2%
[1]
  AC50: 23.1 µM [falling, single point]
[2]
  AC50: 2.31 µM [rising, single point]

## COc1ccc(N2CCN(C(C)C(=O)N(C)Cc3ccccc3)CC2)cc1 (centres undefined)
  cell number change: 5.71%

## COc1ccc(CNC(=O)CCC(=O)c2ccc(C)cc2)cc1OC
  cell number change: 31%

## CCCCOC(=O)C1CCC[C@@H](C)N1 (some centres undefined)
  cell number change: 10.5%

## O=C(CSc1nccc(-c2ccc(Br)cc2)n1)NCCc1ccccc1
  cell number change: 28.8%
[1]
  AC50: 2.59 µM [rising, full curve, poor fit]
[2]
  AC50: 16.4 µM [rising, partial curve]

## CCOC(=O)C1CCN(CC(=O)Nc2c(C(=O)OC)[nH]c3cccc(Cl)c23)CC1
  cell number change: -20.6%
[2]
  AC50: 0.206 µM [rising, full curve, poor fit]

## COCc1[nH][nH]c(=O)c1C=Nc1ccc(F)cc1F
  cell number change: -40.4%
[1]
  AC50: 0.92 µM [falling, full curve]
[2]
  AC50: 0.0206 µM [falling, full curve]

## CCOCCc1nnc(NC(=O)Cc2c(F)cccc2Cl)s1
  cell number change: 114%
[1]
  AC50: 13 µM [rising, partial curve]
[2]
  AC50: 29.1 µM [rising, single point]

## O=C(N/C(=C\c1ccc2c(c1)OCO2)C(=O)N1CCOCC1)c1cccs1
[2]
  AC50: 0.58 µM [rising, single point]

## COc1ccc(NC(=O)CSc2nccn2Cc2ccco2)c(OC)c1
  cell number change: -17.9%

## COc1ccc(Br)cc1C(=O)N/N=C/c1cccnc1
  cell number change: 18.7%
[2]
  AC50: 29.1 µM [rising, single point]

## O=C(NCCC(=O)N(CCc1ccccc1)Cc1ccccc1)c1ccccc1Cl
  cell number change: 120%
[1]
  AC50: 11.6 µM [rising, partial curve]

## Cc1nc(N2CCOCC2)c2c(C)c(C(=O)Nc3ccc(C(F)(F)F)cc3)sc2n1
  cell number change: -44.9%
[1]
  AC50: 14.6 µM [falling, partial curve]
[2]
  AC50: 25.9 µM [falling, single point]

## NC(=O)NC(=O)CN1C(=O)NC2(CCOc3ccccc32)C1=O (centres undefined)
  cell number change: 9.91%
[2]
  AC50: 3.66 µM [rising, partial curve]

## O=C(Nc1cc(Br)ccc1O)c1cnn2c(C(F)F)cc(C3CC3)nc12
[2]
  AC50: 6.51 µM [rising, partial curve]

## COc1cc(CNCCCN2CCOCC2)ccc1OCC(=O)Nc1cccc(C(F)(F)F)c1
  cell number change: -9.75%

## Cc1ccc2cc(CN(Cc3ccc4c(c3)OCO4)Cc3nnnn3Cc3ccco3)c(=O)[nH]c2c1C
[1]
  AC50: 0.651 µM [rising, single point]
[2]
  AC50: 2.06 µM [rising, partial curve]

## Cc1c(C(=O)O)sc(S(=O)(=O)N2CCN(C(=O)Cc3ccccc3)CC2)c1C(=O)O
  cell number change: -3.9%
[2]
  AC50: 29.1 µM [rising, single point]

## Cc1ccc(-n2c(SCC(=O)NCC3CCCO3)nc3n[nH]c(C)c3c2=N)cc1Cl (centres undefined)
  cell number change: 166%
[1]
  AC50: 1.46 µM [rising, full curve]
[2]
  AC50: 1.46 µM [rising, full curve]

## COC(=O)c1c(O)cc(C(C)(C)C)n(-c2ccc(F)cc2)c1=O
  cell number change: -40.7%
[1]
  AC50: 29.1 µM [falling, single point]
[2]
  AC50: 29.1 µM [falling, single point]

## Cc1ccc(N(C(=O)Cn2nnc(-c3ccc(C)o3)n2)C(C(=O)NC2CCCC2)c2ccco2)cc1 (centres undefined)
  cell number change: -65.7%
[1]
  AC50: 18.4 µM [falling, partial curve]
[2]
  AC50: 23.1 µM [falling, single point]

## Cc1ccc(CN=C2Nc3ccccc3CS2)cc1
  cell number change: -20.7%
[2]
  AC50: 29.1 µM [falling, single point]

## C#CCOCCOCCOCCNc1nc(N2CCN(C(=O)CCCCCCCCCCNC(=O)[C@@H](CCSC)n3cc(CCO)nn3)CC2)nc(N2CCN(C(=O)CCCCCCCCCCNC(=O)[C@@H]([C@H](C)O)n3cc(C)nn3)CC2)n1
  cell number change: 5.94%

## COC(=O)N/N=C/c1cc(C)n(-c2ccc(F)cc2)c1C
  cell number change: 12.3%
[2]
  AC50: 6.51 µM [rising, single point]

## Cc1cc(Br)ccc1NC(=S)N1CCOCC1
  cell number change: 19.2%
[2]
  AC50: 11.6 µM [rising, single point]

## CCc1cc2ccccc2nc1SCC(=O)Nc1cc(OC)c(OC)cc1C(=O)O
  cell number change: 7.32%
[2]
  AC50: 2.91 µM [falling, partial curve]

## CSc1ccc(/C=N/n2c(C)cc(C)cc2=O)cc1
  cell number change: 9.49%
[2]
  AC50: 0.146 µM [falling, full curve, poor fit]

## Cc1cc(C=O)c(O)cc1O
  cell number change: 36.2%
[2]
  AC50: 3.26 µM [rising, partial curve]

## CCc1cccc2c(C(=O)C(NC(C)CC)c3ccccc3)c[nH]c12 (centres undefined)
  cell number change: 14.9%
[2]
  AC50: 1.46 µM [rising, partial curve]

## CCOc1ccc(CCNS(=O)(=O)c2ccc3c(c2)N(C(C)=O)CCO3)cc1OCC
  cell number change: 9.85%

## O=C(COC(=O)c1ccc(F)c(S(=O)(=O)N2CCCCC2)c1)NCc1ccc(F)cc1
  cell number change: -7.58%

## Cc1cc(C(=O)NNc2ccc(C(C)C)cc2)n(C(C)(C)C)n1
  cell number change: -0.543%

## CCN(CC(=O)Nc1ccccc1C(F)(F)F)C(=O)c1ccc(N2C(=O)CCC2=O)cc1
  cell number change: 34.6%
[2]
  AC50: 29.1 µM [falling, single point]

## Cc1cc(=O)[nH]c2c1c(=O)[nH]n2C1CC(C)N(C)CC1C (centres undefined)
  cell number change: -11%
[1]
  AC50: 0.731 µM [falling, single point]
[2]
  AC50: 32.6 µM [falling, single point]

## CCc1cc(C(=O)N2CCN(S(=O)(=O)c3ccccc3F)CC2)sc1C
  cell number change: -14.3%

## CCOc1ccc(Nc2nc3c(C)cccc3cc2C#N)cc1
  cell number change: 1.82%

## Cc1ccc(-c2nnc(SCC(=O)N3CCN(c4ccccc4)CC3)o2)cc1
  cell number change: -8.99%
[2]
  AC50: 29.1 µM [rising, single point]

## Cc1ccc(S(=O)(=O)NCC(=O)OCc2nnc(-c3ccccc3)o2)cc1C
  cell number change: 51.1%
[1]
  AC50: 8.2 µM [rising, partial curve, poor fit]

## CCC(=O)Nc1ccc(S(=O)(=O)Nc2ncccn2)cc1
  cell number change: 21.8%
[2]
  AC50: 2.31 µM [falling, full curve, poor fit]

## O=C(NCc1nc2ccccc2[nH]1)C1=C[C@@H](C2CC2)C[C@@H](OCc2ccc(CO)cc2)O1
  cell number change: -3.77%
[2]
  AC50: 6.51 µM [rising, single point]

## CCNC(=O)COc1cc(C)c(Cl)c(C)c1
  cell number change: 8.47%
[2]
  AC50: 6.51 µM [rising, partial curve]

## CCCN1C(=O)/C(=C/c2nc3ccccc3c(=O)[nH]2)c2cc(C)ccc21
  cell number change: 22%

## Cc1nc2ccccc2c2c1C(=O)N(Cc1cccnc1)C2=O
[2]
  AC50: 1.03 µM [rising, full curve]

## O=C(CNS(=O)(=O)c1cccs1)NCc1ccc(F)cc1
  cell number change: -22.3%
[1]
  AC50: 3.26 µM [rising, single point]
[2]
  AC50: 3.26 µM [rising, single point]

## Nn1c(SCc2cc([N+](=O)[O-])cc3c2OCOC3)nnc1-c1cccnc1
  cell number change: 2.22%
[1]
  AC50: 1.46 µM [rising, partial curve, poor fit]

## CN1CCC(OC(=O)c2cccc(Br)c2)CC1
  cell number change: -64.5%
[1]
  AC50: 2.06 µM [falling, full curve]
[2]
  AC50: 18.4 µM [falling, partial curve]

## O=C(CSc1nnc(CNC(=O)c2c(F)cccc2Cl)o1)NCc1ccc(F)cc1
  cell number change: -18.4%
[2]
  AC50: 29.1 µM [falling, single point]

## Cc1cc(N/N=C/c2ccc(O)c(C)c2O)nc(-c2ccccc2O)n1
  cell number change: -65%
[1]
  AC50: 29.1 µM [falling, single point]
[2]
  AC50: 0.731 µM [falling, single point]

## C#CCOCCOCCOCCNc1nc(N2CCN(C(=O)C(Cc3cc4ccccc4[nH]3)n3cc(C(N)Cc4ccc(O)cc4)nn3)CC2)nc(N2CCN(C(=O)C(CCC(=O)O)n3cc(C(N)C(C)CC)nn3)CC2)n1 (centres undefined)
  cell number change: 5.68%
[2]
  AC50: 0.291 µM [rising, full curve, poor fit]

## CCOC(=O)c1c(-c2ccc(OC)cc2)oc2ccc(OCC(N)=O)cc12
  cell number change: -33.8%
[1]
  AC50: 20.6 µM [falling, single point]

## CCN1CCCC1CNC(=O)COc1cc(=O)n(C)c2ccccc12 (centres undefined)
  cell number change: 24.5%
[2]
  AC50: 23.1 µM [rising, partial curve, poor fit]

## CCCC(=O)Nc1nnc(SCC(=O)NCc2ccc3c(c2)OCO3)s1
  cell number change: -6.01%

## Cc1ccc(Cl)cc1N1CCN(S(=O)(=O)c2ccc3c(c2)OCCO3)CC1
  cell number change: 31.8%

## COc1ccc(N(CC(=O)N2CCc3ccccc3C2)S(C)(=O)=O)cc1
  cell number change: 83.1%
[1]
  AC50: 10.3 µM [rising, partial curve]
[2]
  AC50: 13 µM [rising, partial curve]

## O=C(c1ccccc1)c1nc2ccccc2n(CCCn2c(=O)c(C(=O)c3ccccc3)nc3ccccc32)c1=O
  cell number change: -10.8%
